Experimental findings from patent US20040176568A1 (GENERAL HOSPITAL, published 2004) are described below.

Experiment [1] concerns the target T1, human PTH-1 receptor (human, UniProt Q03431 27-593).
T1 sequence (looked up): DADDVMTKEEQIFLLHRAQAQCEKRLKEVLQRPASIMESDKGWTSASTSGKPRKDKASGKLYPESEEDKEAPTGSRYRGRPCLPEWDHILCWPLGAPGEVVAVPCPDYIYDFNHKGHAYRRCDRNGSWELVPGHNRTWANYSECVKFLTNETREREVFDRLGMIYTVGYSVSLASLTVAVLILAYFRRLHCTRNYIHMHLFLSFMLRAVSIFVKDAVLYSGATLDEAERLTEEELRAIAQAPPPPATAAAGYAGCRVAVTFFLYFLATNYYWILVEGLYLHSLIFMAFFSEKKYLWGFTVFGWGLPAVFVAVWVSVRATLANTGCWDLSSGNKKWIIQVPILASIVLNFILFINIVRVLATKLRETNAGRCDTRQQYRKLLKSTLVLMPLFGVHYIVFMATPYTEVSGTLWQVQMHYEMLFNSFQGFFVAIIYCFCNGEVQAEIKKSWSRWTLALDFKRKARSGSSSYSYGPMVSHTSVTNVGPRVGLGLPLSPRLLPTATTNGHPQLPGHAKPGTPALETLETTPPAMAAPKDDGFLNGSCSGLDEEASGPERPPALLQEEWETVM
Nature of the experiment: radioligand competition, HKRK B7 cells (human PTH-1 receptor). From the text: (§1) Cell layers were washed three times before solubilization for determination of cell-associated radioactivity.
For orientation: In a radioligand displacement assay an active substance lowers the binding of a labelled ligand.

Experiment [2] deals with T2, rat PTH-1 receptor (rat, UniProt P25961 27-591).
T2 sequence (looked up): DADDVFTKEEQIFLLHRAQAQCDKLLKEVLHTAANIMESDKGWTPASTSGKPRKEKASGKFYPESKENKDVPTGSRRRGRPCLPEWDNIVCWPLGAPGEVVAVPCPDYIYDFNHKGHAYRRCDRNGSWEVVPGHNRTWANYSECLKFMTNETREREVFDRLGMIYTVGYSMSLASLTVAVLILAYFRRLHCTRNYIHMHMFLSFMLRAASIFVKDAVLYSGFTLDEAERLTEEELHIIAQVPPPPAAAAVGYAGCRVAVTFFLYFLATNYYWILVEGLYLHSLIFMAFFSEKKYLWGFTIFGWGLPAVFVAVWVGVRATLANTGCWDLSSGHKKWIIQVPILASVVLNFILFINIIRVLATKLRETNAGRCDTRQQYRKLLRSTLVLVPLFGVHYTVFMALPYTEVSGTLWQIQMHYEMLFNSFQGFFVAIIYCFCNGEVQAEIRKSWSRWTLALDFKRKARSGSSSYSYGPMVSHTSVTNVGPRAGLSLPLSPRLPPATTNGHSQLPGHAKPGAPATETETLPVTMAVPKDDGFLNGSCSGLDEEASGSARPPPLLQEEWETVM
Put plainly: radioligand competition, EW5 cells (rat PTH-1 receptor).
Source text: as §1

These are yes or no findings as the source states them, for the method shown. Some binding calls cover weakened binding; strength is not graded here.

With VSEIQLMHNLGKHLNSMERVEWLRKKLQDVHNY (chain 1: C-terminal amide) [hPTH-(2-34)], the binding entry in experiment [1] is listed as “binds”.

For the molecule SVSEIQLMHNLGKHLNSMERVEWLRKKLQDVHNY (chain 1: C-terminal amide) [hPTH-(1-34)], the binding entry in experiment [1] and in experiment [2] was “binds” each time.
